Experimental data: publication PMC2659767, “Tracking Membrane Protein Association in Model Membranes” (PLoS ONE, 2009)
These are yes or no findings as the source states them, for the method shown.

T1: MexA, mature form bearing a palmitoyl moiety, FITC-labeled (Pseudomonas aeruginosa), P52477
T1 chain: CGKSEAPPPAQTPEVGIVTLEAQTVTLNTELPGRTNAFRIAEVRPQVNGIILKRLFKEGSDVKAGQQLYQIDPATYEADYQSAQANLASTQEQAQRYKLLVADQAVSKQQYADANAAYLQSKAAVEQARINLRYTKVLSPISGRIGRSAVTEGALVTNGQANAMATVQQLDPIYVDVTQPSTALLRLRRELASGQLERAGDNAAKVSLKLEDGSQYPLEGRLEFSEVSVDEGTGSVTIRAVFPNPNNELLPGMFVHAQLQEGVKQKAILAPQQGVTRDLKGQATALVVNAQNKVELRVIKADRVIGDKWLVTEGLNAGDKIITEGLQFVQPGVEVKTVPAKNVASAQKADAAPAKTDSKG

T2: OprM trimer, unlabeled (Pseudomonas aeruginosa) (UniProt Q51487)
T2 sequence (chain, palmitoyl moiety (said of the protein in general)): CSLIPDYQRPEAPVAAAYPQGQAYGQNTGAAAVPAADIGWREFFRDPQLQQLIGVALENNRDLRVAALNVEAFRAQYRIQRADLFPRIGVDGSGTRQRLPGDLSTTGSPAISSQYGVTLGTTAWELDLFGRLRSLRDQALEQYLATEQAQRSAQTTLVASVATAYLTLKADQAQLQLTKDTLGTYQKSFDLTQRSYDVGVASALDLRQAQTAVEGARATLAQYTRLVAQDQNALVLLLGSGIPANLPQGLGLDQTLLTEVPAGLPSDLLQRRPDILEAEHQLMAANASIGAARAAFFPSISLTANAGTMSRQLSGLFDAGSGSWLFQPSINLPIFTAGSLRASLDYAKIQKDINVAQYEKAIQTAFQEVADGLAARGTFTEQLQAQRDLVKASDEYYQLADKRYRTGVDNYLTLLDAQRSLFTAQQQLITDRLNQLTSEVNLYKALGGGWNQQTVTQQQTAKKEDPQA


Experiments:
[1] = biological target: T1, MexA, mature form bearing a palmitoyl …; assay: FRAPP (fluorescence recovery after fringe pattern photobleaching); FITC-labeled MexA alone in the C12E5/beta-OG L3 sponge phase, dW 90 to 320 A; diffusion coefficient compared with that of the lipid FITC-C16; 100 mM NaCl, 50 mM Na2HPO4 pH 7.5, 5% glycerol; both purified; details: remark: other sources report otherwise
[2] = biological target: T2, OprM trimer, unlabeled (Pseudomonas aeruginosa); assay: condition: only bilayer separation dW>250 A (MexA 0.1 uM, OprM trimer 1 uM); FRAPP (fluorescence recovery after fringe pattern photobleaching); FITC-labeled MexA (0.1 uM) in sponge phase containing unlabeled OprM trimer (1 uM), bilayer separation dW>250 A (only lateral interactions possible); pH …; both purified
[3] = biological target: T2, OprM trimer, unlabeled (Pseudomonas aeruginosa); assay: condition: only bilayer separation dW<150 A (MexA 0.1 uM, OprM trimer 1 uM); FRAPP (fluorescence recovery after fringe pattern photobleaching); FITC-labeled MexA (0.1 uM) in sponge phase containing unlabeled OprM trimer (1 uM), bilayer separation dW<150 A; pH 7.5; both purified

Row | Binder | binding [1] | binding [2] | binding [3]
1 | MexA, mature form bearing a palmitoyl moiety, FITC-labeled, P52477 24-383 (protein, here or on the partner: palmitoyl moiety (on the unique N-terminal cysteine); FITC label; palmitoyl moiety (on the unique N-terminal cysteine); FITC label) CGKSEAPPPAQTPEVGIVTLEAQTVTLNTELPGRTNAFRIAEVRPQVNGIILKRLFKEGSDVKAGQQLYQIDPATYEADYQSAQANLASTQEQAQRYKLLVADQAVSKQQYADANAAYLQSKAAVEQARINLRYTKVLSPISGRIGRSAVTEGALVTNGQANAMATVQQLDPIYVDVTQPSTALLRLRRELASGQLERAGDNAAKVSLKLEDGSQYPLEGRLEFSEVSVDEGTGSVTIRAVFPNPNNELLPGMFVHAQLQEGVKQKAILAPQQGVTRDLKGQATALVVNAQNKVELRVIKADRVIGDKWLVTEGLNAGDKIITEGLQFVQPGVEVKTVPAKNVASAQKADAAPAKTDSKG | no binding | – | –
2 | MexA, mature form bearing a palmitoyl moiety, FITC-labeled (natural protein, palmitoyl moiety (on the unique N-terminal cysteine); FITC label, MexA, periplasmic lipoprotein of the MexA-MexB-OprM efflux pump of Pseudomonas aeruginosa, in its mature form; Found monomeric in the sponge phase; also called FITC-labeled MexA; periplasmic protein MexA; source: solubilized in 1% beta-octylglucoside, then inserted into the L3 sponge phase) CGKSEAPPPAQTPEVGIVTLEAQTVTLNTELPGRTNAFRIAEVRPQVNGIILKRLFKEGSDVKAGQQLYQIDPATYEADYQSAQANLASTQEQAQRYKLLVADQAVSKQQYADANAAYLQSKAAVEQARINLRYTKVLSPISGRIGRSAVTEGALVTNGQANAMATVQQLDPIYVDVTQPSTALLRLRRELASGQLERAGDNAAKVSLKLEDGSQYPLEGRLEFSEVSVDEGTGSVTIRAVFPNPNNELLPGMFVHAQLQEGVKQKAILAPQQGVTRDLKGQATALVVNAQNKVELRVIKADRVIGDKWLVTEGLNAGDKIITEGLQFVQPGVEVKTVPAKNVASAQKADAAPAKTDSKG | – | no binding | no binding
